No constants are given. Whether binding was seen depends on the method and setting. In cells and extracts the contact can be indirect. Some results given as binding are weak or reduced against the parent protein; the word gives no strength.
Molecular target: EGFP-eEF1A1 (eukaryotic elongation factor 1 alpha 1) (UniProt P68104)
Experiment: co-IP

p62/SQSTM1 (from UniProt Q13501 1-440)
binding: binds
